No constants are given. Whether binding was seen depends on the method and setting. Binding can be weak; no strength is given.
Experiments:
[1] = target: human CD163 (purified, coated on ELISA plate) (human) (UniProt Q86VB7); assay: ELISA on CD163 coated wells, supernatant of transfected cells in two fold dilutions, goat anti-human IgG (H&L) HRP; the right four bar groups are taken as the CD163 wells
[2] = target: human CD163 (purified, coated on ELISA plate) (human) (UniProt Q86VB7); assay: ELISA, CD163 coated plate, CHO-S supernatant
[3] = target: human CD163 (purified, coated on ELISA plate) (human) (UniProt Q86VB7); assay: ELISA, CD163 coated plate; the sample held about twice as much antibody as cgamma(6)/NRY

Sequences of proteins named here, by UniProt entry; tags and fusion partners are left off. A change or cut given only in a name is not applied to a line headed by its entry.
UniProt Q86VB7: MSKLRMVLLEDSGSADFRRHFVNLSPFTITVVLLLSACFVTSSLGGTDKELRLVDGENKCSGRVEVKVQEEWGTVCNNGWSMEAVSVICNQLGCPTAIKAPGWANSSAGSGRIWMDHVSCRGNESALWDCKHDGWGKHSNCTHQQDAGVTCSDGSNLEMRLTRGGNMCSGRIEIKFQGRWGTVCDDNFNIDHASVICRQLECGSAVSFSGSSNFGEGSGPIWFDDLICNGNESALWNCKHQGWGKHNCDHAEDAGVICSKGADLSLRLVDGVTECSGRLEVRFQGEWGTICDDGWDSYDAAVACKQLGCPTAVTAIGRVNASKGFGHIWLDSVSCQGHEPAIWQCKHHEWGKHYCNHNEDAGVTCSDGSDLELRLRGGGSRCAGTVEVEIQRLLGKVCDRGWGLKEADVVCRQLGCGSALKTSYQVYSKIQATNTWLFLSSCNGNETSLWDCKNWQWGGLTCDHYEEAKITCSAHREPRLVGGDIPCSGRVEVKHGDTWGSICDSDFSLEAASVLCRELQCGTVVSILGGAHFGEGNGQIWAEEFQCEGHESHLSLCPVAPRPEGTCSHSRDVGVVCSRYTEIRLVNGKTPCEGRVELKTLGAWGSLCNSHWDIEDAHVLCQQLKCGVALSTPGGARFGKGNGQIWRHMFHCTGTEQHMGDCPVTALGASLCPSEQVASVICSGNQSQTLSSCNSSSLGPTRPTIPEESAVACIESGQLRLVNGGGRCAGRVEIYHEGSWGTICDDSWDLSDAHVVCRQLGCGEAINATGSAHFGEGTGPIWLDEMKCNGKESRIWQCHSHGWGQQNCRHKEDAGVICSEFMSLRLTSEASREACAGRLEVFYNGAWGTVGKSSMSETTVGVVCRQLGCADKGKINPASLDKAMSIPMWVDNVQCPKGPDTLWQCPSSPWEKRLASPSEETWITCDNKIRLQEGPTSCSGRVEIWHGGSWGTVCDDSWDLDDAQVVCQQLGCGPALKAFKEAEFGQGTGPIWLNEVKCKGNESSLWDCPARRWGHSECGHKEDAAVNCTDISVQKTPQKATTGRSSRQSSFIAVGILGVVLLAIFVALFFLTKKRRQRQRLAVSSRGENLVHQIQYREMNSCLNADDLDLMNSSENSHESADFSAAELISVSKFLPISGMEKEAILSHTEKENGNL

Measured: binding

B1: cgamma(6)/K8 (antibody)
VH: DVQLQESGPGLVKPSQSLSLTCTVTGYSITSDYAWNWIRQFPGNKLEWMGYITYSGITNYNPSLKSQISITRDTSKNQFFLQLNSVTTEDTATYYCVSGTYYFDYWGQGTTLTVSS
light: DIVMTQSPSSLSASVGDRVTITCRASQSVSSDVAWFQQKPGKSPKPLIYYASSLQSGVPSRFSGSGSGTDFTLTISSLQAEDFAVYFCGQDYTSPRTFGGGTKLEIKRTVAAPSVFIFPPSDEQLKSGTASVVCLLNNFYPREAKVQWKVDNALQSGNSQESVTEQDSKDSTYSLSSTLTLSKADYEKHKVYACEVTHQGLSSPVTKSFNRGEC
binds: all assays above

From patent US20120258107A1
